# Results as given in PubChem BioAssay AID1671190 (National Center for Advancing Translational Sciences (NCATS), 2021).
# Amino acid sequences for entries named in this document (tags omitted). A change or cut given only in a name is not applied to a line headed by its entry.
# UniProt P18054: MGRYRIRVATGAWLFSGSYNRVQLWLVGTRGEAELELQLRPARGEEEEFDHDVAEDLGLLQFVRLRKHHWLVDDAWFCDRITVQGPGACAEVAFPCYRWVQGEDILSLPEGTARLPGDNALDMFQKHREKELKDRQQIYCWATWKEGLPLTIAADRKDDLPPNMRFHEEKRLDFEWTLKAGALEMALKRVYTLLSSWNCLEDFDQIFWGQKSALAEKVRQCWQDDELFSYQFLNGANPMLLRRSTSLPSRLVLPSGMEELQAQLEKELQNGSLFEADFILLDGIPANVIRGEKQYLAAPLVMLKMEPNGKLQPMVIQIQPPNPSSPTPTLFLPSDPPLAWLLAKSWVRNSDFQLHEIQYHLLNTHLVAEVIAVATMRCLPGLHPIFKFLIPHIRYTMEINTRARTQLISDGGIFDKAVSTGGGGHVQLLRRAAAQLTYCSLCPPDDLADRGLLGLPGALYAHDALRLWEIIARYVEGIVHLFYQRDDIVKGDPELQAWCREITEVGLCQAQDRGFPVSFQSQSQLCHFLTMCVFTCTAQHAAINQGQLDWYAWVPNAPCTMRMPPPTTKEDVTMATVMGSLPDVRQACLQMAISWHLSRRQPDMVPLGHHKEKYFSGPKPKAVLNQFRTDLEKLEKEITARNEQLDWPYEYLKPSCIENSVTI
# Screen size: about 580,000 compounds; about 6,100 (1.1%) were called active. Inconclusive results, whose numbers are uncertain, are shown with a selection of clear calls. The call rests on the fitted dose curve; in most records, active means well fitted inhibition curve with a large enough effect; inconclusive means small, poorly fitted or top-dose-only effect, or another doubt; inactive means no such curve, though single readings can be large or run the other way. A potency beside an inconclusive call is a rough fit, not a confirmed value.
# Molecular target: Polyunsaturated fatty acid lipoxygenase ALOX12 (Homo sapiens) (UniProt P18054)
# Assay: Primary qHTS assay for inhibitors of human arachidonate 12S-lipoxygenase (ALOX12): Round 2
# Conditions: purified 12hLO, xylenol orange hydroperoxide absorbance; activity change, negative = inhibition: at 108 µM (top of the series) unless noted
# How it was run: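 Hydroperoxide product was detected by ferrous iron/xylenol orange as the 573 to 405 nm absorbance ratio. Arachidonic acid at 40 uM (final) was turned over for 30 min at room temperature by 150 nM human 12hLO, pH 7.0 Hepes buffer, after 15 min compound preincubation.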
# On the % scale 0 is the no-effect control and ±100 the full control effect; potency means the concentration at half of the fitted maximal effect.
SMILES,Potency,"activity change, negative = inhibition"
CCCCc1c(-c2ccccc2OC)ncn1C(C)c1ccc(Cl)cc1 (centres undefined),"inconclusive: 44.7 µM [inhibitor, partial curve, poor fit]",–
CCCCN(Cc1ccccc1)c1ccc(NS(=O)(=O)c2cc(C)cc(C)c2)cc1C(=O)O,"inconclusive: 25.1 µM [inhibitor, partial curve, poor fit]",–
CCc1ccc(N2C(=O)C3C(C2=O)N2CCCN2C3c2ccccc2)cc1 (centres undefined),"inconclusive: 112 µM [inhibitor, single point]",–
O=C(Nc1ncccc1O)c1ccc2c(c1)OCO2,"inconclusive: 25.1 µM [inhibitor, single point]",–
O=C1NC[C@@H](CCCCN2CCN(CC3CCCCC3)C(=O)C2=O)N(CCC2CCCCC2)C1=O,"inconclusive: 2.82 µM [inhibitor, full curve, poor fit]",–
CCOC1=C2CN(S(=O)(=O)c3ccc(C)cc3)[C@@H](c3ccc(CC)cc3)C[C@H]2[C@H]2C(=O)N(c3ccccc3)C(=O)[C@H]2C1,–,inconclusive: -34.4% [inhibitor]
CC1=C(C(=O)OC(C)C)C(c2ccccc2C(F)(F)F)CC(=O)N1 (centres undefined),inactive,–
CC1CCCCN1C(=O)CN1CCN(C(=O)CCc2c[nH]c3ccccc23)CC1 (centres undefined),inactive,–
Cc1ccc(S(=O)(=O)NCC(=O)N/N=C/c2ccccc2O)cc1,"inconclusive: 31.6 µM [inhibitor, partial curve, poor fit]",–
CCCCN1C(=O)c2[nH]nc(-c3ccccc3O)c2C1c1cc(Br)c(O)c(OC)c1 (centres undefined),"inconclusive: 39.8 µM [inhibitor, partial curve]",–
CCOc1ccc(-n2c(SC(C)C)nc3c(c2=O)SCC3)cc1,inactive,–
COc1cc(C(=O)NC(=S)Nc2ccc(N3CCCC3)cc2)cc(OC)c1OC,"inconclusive: 50.1 µM [inhibitor, partial curve, poor fit]",–
O=C(NCc1cc2n(n1)CCNC2)C1CCCN(c2ccccn2)C1 (centres undefined),"inconclusive: 8.91 µM [inhibitor, partial curve, poor fit]",–
Brc1ccc(CNc2n[nH]c(-c3cccs3)n2)cc1,"inconclusive: 89.1 µM [inhibitor, single point]",–
CN(C)Cc1nnc(C2CC(NC(=O)c3n[nH]c4c3CCCC4)C2)n1C (centres undefined),inactive,–
CCn1ccc(C(=O)Nc2ncc(C)s2)n1,"inconclusive: 31.6 µM [inhibitor, partial curve]",–
COc1cccc(C(=O)N2CCCCC2CCN2CCCC2)c1 (centres undefined),inactive,–
CCc1ccc(CCC(=O)NNc2cccc(Cl)c2)cc1,active: 15.8 µM,–
COc1ccc(C)cc1NC(=O)Nc1ccc2c(c1)CCC2,inactive,–

# 3 structures already listed, ordered by heavy-atom count, falling:
SMILES,Potency,"activity change, negative = inhibition"
O=C(NCc1cc2n(n1)CCNC2)C1CCCN(c2ccccn2)C1 (centres undefined),"inconclusive: 8.91 µM [inhibitor, partial curve, poor fit]",–
O=C(Nc1ncccc1O)c1ccc2c(c1)OCO2,"inconclusive: 25.1 µM [inhibitor, single point]",–
CCn1ccc(C(=O)Nc2ncc(C)s2)n1,"inconclusive: 31.6 µM [inhibitor, partial curve]",–
